Measurements taken from patent US11845726B2.
At least one structure is not confirmed: it was looked up by name or label, or the drawing left a doubt.

By UniProt entry, the sequences of proteins in these tests, tags left out.
UniProt P28223, whole entry: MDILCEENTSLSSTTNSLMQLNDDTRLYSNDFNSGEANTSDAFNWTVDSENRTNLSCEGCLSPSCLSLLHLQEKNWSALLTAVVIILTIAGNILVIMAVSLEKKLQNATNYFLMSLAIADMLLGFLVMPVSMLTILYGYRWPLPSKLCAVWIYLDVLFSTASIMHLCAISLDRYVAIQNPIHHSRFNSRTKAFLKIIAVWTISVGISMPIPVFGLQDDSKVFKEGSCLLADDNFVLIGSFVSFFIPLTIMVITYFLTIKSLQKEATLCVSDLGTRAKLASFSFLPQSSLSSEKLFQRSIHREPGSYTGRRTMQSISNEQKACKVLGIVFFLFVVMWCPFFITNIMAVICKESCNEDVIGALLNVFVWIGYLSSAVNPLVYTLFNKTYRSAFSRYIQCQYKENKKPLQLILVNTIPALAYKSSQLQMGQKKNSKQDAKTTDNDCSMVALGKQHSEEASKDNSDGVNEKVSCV
UniProt P35363, whole entry: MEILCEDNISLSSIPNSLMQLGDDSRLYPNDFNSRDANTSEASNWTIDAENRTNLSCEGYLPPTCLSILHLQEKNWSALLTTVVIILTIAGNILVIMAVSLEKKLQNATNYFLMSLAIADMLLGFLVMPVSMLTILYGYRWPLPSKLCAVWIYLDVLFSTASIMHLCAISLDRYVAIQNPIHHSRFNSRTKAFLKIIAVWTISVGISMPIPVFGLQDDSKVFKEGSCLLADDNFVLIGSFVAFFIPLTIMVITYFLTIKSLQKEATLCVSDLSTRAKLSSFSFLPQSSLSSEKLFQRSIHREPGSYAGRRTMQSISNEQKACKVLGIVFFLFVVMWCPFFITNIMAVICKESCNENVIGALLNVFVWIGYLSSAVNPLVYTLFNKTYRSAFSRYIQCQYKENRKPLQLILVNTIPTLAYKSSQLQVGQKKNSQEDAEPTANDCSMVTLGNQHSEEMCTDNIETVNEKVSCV

How the values were obtained:
[1] = target: 5-HT2A receptor (Homo sapiens, UniProt P28223); conditions: literature; cited from earlier work
[2] = target: T1, 5-HT2A receptor (Mus musculus, UniProt P35363); assay: Drug-induced Head Twitch Response (HTR); type: in vivo, mice; conditions: 1 mg/kg i.p., 15-to-30-minute window after administration
T1 construct: tissue Charles River; host or cells: living C57BL/6-Elite mice (neuronal receptor)

For CN(C)CCc1c[nH]c2cccc(OP(=O)(O)O)c12 [psilocybin], the “binding at 5-HT2A of intact molecule” value [1] is listed as “very weak” and the “Head Twitch Response” value [2] is listed as “Elevated incidences of HTR”.
